## Drug screen on melanoma cell lines: apoptosis marker

From a melanoma drug combination screen (doi:10.1371/journal.pone.0140310); values rounded.

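The test systems are human melanoma cell lines, treated with a pair of drugs for 72 h and then stained and imaged. Values are the share of nuclei positive for cleaved PARP as a percentage of the same share in the DMSO control: 100 is the control level, higher means more apoptosis. Every drug was used at one fixed concentration, the higher of two screened. No replicate spread is given; individual values may be noisy. Basal and induced levels differ widely between cell lines.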 An unselected part of the screen is shown.

All values are for the listed drug together with TCS401 (8.33 µM): O=C(O)C(=O)Nc1sc2c(c1C(=O)O)CCNC2

* Cc1nc(Nc2ncc(C(=O)Nc3c(C)cccc3Cl)s2)cc(N2CCN(CCO)CC2)n1 at 0.02 µM : IST-MEL1: 164; MEL-HO: 29.4
* Cn1nnc2c(C(N)=O)ncn2c1=O at 10 µM : IST-MEL1: 142; MEL-HO: 204
* Nc1nc(F)nc2c1ncn2[C@@H]1O[C@H](CO)[C@@H](O)[C@@H]1O at 1 µM : IST-MEL1: 133; MEL-HO: 368
* O=C(Oc1ccc([N+](=O)[O-])cc1)N1CCC(C(O)(c2ccc3c(c2)OCO3)c2ccc3c(c2)OCO3)CC1 at 5 µM : IST-MEL1: 112; MEL-HO: 45.5
* COc1ccc(C2=N[C@@H](c3ccc(Cl)cc3)[C@@H](c3ccc(Cl)cc3)N2C(=O)N2CCNC(=O)C2)c(OC(C)C)c1 at 0.5 µM : IST-MEL1: 42.5; MEL-HO: 90.5
* C#Cc1cccc(Nc2ncnc3cc(OCCOC)c(OCCOC)cc23)c1 at 4 µM : IST-MEL1: 53.3; MEL-HO: 51.4
* CCCCCCCCCCCC1=C(O)C(=O)C=C(O)C1=O at 6 µM : IST-MEL1: 152; MEL-HO: 89.4
* O=c1cc(-c2cccc3c2Sc2ccccc2S3)oc(N2CCOCC2)c1 at 5 µM : IST-MEL1: 333; MEL-HO: 63.1
* Oc1cc(-c2nc(-c3ccccc3)[nH]c2-c2ccncc2)ccc1Cl at 1 µM : IST-MEL1: 73.2; MEL-HO: 51.5
* CS(=O)(=O)c1ccc(C(=O)Nc2ccc(Cl)c(-c3ccccn3)c2)c(Cl)c1 at 5 µM : IST-MEL1: 115; MEL-HO: 125
* COc1cc2ncnc(Nc3ccc(Oc4ccccc4)cc3)c2cc1OC at 10 µM : IST-MEL1: 120; MEL-HO: 126
* N#Cc1c(O)c2c(-c3ccc(-c4ccccc4O)cc3)csc2[nH]c1=O at 10 µM : IST-MEL1: 75.9; MEL-HO: 80.8
* COCC[n+]1c2c(n(Cc3cnccn3)c1C)C(=O)c1ccccc1C2=O at 0.002 µM : IST-MEL1: 50.7; MEL-HO: 47.0
* Nc1ncn([C@H]2C[C@H](O)[C@@H](CO)O2)c(=O)n1 at 0.5 µM : IST-MEL1: 101; MEL-HO: 48.0
* Cc1cc(Nc2cc(N3CCN(C)CC3)nc(/C=C/c3ccccc3)n2)n[nH]1 at 0.2 µM : IST-MEL1: 77.5; MEL-HO: 86.5
* O=C1NC(=O)/C(=C/c2ccc(-c3ccc(F)cc3O)o2)S1 at 5 µM : IST-MEL1: 64.6; MEL-HO: 75.8
* NCC(=O)Nc1ccc(-n2nc(C(F)(F)F)cc2-c2ccc3c(ccc4ccccc43)c2)cc1 at 5 µM : IST-MEL1: 46.2; MEL-HO: 26.2
* Cc1cc([N+](=O)[O-])ccc1NS(=O)(=O)c1cc(Cl)ccc1Cl at 5 µM : IST-MEL1: 255; MEL-HO: 82.6
* NC1(c2ccc(-c3nc4ccn5c(=O)[nH]nc5c4cc3-c3ccccc3)cc2)CCC1 at 2 µM : IST-MEL1: 51.2; MEL-HO: 142
* CO[C@H]1C[C@@H]2CC[C@@H](C)[C@@](O)(O2)C(=O)C(=O)N2CCCC[C@H]2C(=O)O[C@H]([C@H](C)C[C@@H]2CC[C@@H](OCCO)[C@H](OC)C2)CC(=O)[C@H](C)/C=C(\C)[C@@H](O)[C@@H](OC)C(=O)[C@H](C)C[C@H](C)/C=C/C=C/C=C/1C at 0.1 µM : IST-MEL1: 34.6; MEL-HO: 92.4
* Nc1cccc2c1CN(C1CCC(=O)NC1=O)C2=O (stereo not drawn) at 5 µM : IST-MEL1: 53.5; MEL-HO: 40.3

The last 2 entries again:

- CO[C@H]1C[C@@H]2CC[C@@H](C)[C@@](O)(O2)C(=O)C(=O)N2CCCC[C@H]2C(=O)O[C@H]([C@H](C)C[C@@H]2CC[C@@H](OCCO)[C@H](OC)C2)CC(=O)[C@H](C)/C=C(\C)[C@@H](O)[C@@H](OC)C(=O)[C@H](C)C[C@H](C)/C=C/C=C/C=C/1C at 0.1 µM : IST-MEL1: 34.6; MEL-HO: 92.4
- Nc1cccc2c1CN(C1CCC(=O)NC1=O)C2=O (stereo not drawn) at 5 µM : IST-MEL1: 53.5; MEL-HO: 40.3